Laboratory results published in the M2OR odorant receptor database.
Where a chain is given by its changes, count along the chain named. This is one part of the list. Calls are pooled over several reports, among them a noisy single-well screen.

Chains of the proteins cited; added tags and fusions are not shown. Chains listed by the source or under a name are the forms on record and can include a tag or linker.
O11H2, as listed by the source: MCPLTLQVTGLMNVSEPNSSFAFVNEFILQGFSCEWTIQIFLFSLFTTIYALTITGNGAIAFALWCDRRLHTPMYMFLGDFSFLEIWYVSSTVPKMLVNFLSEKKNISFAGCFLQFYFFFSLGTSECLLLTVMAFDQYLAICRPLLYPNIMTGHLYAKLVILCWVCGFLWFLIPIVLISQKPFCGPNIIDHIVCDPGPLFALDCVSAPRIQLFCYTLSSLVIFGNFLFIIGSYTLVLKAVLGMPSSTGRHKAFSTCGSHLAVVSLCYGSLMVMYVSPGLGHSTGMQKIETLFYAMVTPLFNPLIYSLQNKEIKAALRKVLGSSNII

Assays:
Conditions in all cases: stereoisomer not certain
[1] = test system: T1, O10J3
T1 sequence (whole entry): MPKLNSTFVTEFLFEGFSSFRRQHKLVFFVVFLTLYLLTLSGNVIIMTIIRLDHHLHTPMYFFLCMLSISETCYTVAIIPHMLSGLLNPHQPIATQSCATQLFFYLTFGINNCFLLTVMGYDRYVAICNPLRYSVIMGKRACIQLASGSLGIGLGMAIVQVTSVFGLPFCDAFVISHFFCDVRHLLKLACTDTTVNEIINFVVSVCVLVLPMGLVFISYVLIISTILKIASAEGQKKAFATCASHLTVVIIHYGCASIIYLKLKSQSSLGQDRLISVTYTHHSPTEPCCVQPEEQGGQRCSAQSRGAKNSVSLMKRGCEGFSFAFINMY
Outline: (§1)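 Each entry records the cell line, G-protein, co-transfected protein and tags used. Methods varied with the source, often transient luciferase assays in mammalian cell lines. A receptor–molecule pair is called responsive (active) if the original authors judged its signal statistically different from baseline and non-responsive (inactive) otherwise.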

[2] = test system: T2, O10J5
T2 sequence (whole entry): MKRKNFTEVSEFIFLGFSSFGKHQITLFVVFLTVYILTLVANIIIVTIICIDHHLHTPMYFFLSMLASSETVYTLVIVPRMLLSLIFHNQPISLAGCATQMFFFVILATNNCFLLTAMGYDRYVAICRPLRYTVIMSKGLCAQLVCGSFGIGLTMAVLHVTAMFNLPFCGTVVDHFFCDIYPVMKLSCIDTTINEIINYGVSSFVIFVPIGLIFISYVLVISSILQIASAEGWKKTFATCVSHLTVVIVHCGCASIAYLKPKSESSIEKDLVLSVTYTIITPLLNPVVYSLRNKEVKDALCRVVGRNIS
Outline: as §1

[3] = test system: T3, O10P1
T3 sequence (whole entry): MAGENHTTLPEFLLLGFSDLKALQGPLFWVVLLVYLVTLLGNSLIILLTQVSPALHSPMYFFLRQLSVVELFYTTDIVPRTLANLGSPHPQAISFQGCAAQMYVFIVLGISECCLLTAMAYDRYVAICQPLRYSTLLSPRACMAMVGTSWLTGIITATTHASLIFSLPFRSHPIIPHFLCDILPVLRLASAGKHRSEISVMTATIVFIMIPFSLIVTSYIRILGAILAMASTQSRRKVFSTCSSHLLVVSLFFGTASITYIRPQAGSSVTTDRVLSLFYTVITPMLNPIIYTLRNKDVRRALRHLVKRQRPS
Outline: as §1

[4] = test system: T4, O10Q1
T4 sequence (whole entry): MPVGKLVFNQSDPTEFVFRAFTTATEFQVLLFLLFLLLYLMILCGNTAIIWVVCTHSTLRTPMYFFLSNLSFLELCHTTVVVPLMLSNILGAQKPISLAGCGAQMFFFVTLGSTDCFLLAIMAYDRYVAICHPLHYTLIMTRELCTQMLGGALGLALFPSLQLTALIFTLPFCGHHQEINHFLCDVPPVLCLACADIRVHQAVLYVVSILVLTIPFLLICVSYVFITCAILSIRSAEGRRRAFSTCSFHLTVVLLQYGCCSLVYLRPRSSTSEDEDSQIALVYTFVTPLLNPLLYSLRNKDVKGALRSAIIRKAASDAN
Outline: as §1

[5] = test system: T5, O10R2
T5 sequence (whole entry): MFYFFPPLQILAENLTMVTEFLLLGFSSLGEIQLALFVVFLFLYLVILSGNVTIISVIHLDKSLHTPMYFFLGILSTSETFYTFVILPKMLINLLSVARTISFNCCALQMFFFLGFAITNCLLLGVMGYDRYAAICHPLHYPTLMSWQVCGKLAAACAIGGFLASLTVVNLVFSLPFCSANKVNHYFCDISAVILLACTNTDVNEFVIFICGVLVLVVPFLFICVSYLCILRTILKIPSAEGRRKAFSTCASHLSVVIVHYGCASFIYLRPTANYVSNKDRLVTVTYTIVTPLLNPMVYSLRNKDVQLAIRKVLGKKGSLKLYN
Outline: as §1

[6] = test system: T6, O10R2; remark: listed apart in the source
T6 sequence (whole entry): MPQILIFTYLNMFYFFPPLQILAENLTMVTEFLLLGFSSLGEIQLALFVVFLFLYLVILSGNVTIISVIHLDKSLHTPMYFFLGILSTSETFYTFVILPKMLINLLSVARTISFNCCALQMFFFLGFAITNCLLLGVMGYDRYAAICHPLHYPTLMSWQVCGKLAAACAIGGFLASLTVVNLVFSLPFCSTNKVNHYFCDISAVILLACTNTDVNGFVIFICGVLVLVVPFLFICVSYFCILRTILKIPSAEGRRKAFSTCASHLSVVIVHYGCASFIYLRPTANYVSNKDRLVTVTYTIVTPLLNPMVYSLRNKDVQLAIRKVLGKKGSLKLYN
Outline: as §1

[7] = test system: T7, O10V1
T7 sequence (whole entry): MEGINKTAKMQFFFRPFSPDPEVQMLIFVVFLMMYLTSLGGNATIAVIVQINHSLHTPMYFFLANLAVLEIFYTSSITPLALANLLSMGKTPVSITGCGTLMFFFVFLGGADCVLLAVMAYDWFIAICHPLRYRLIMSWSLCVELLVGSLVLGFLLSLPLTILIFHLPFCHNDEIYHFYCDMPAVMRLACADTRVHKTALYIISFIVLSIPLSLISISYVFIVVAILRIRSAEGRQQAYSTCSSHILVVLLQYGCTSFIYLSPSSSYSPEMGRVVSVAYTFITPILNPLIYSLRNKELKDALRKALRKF
Outline: as §1

[8] = test system: T8, O10W1
T8 sequence (whole entry): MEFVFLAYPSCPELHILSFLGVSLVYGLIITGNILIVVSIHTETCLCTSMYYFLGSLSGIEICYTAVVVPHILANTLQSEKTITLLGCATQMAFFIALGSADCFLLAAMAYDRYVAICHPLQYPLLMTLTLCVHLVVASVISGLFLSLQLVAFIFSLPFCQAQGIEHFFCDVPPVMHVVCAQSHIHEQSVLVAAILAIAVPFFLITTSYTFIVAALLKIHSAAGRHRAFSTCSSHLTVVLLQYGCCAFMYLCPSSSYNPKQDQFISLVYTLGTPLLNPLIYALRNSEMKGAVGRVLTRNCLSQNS
Outline: as §1

[9] = test system: T9, O10X1
T9 sequence (whole entry): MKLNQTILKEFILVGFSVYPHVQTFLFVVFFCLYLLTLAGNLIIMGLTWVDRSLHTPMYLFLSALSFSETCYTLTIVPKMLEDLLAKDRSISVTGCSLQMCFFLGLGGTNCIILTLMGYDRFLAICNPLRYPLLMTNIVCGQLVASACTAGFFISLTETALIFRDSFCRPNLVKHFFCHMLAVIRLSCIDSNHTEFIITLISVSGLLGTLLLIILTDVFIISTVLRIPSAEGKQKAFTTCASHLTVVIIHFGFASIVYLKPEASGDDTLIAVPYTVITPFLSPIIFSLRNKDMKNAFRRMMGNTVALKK
Outline: as §1

[10] = test system: T10, O11G2
T10 sequence (whole entry): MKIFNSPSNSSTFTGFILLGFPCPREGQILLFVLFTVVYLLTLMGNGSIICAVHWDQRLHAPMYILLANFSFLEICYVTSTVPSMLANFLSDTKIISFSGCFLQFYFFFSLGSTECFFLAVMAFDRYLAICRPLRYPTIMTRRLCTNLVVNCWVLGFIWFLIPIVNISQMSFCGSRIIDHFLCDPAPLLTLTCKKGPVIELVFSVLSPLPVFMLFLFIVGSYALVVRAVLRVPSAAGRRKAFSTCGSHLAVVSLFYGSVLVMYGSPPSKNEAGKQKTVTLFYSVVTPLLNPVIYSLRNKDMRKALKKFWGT
Outline: as §1

[11] = test system: T11, O11H1
T11 sequence (whole entry): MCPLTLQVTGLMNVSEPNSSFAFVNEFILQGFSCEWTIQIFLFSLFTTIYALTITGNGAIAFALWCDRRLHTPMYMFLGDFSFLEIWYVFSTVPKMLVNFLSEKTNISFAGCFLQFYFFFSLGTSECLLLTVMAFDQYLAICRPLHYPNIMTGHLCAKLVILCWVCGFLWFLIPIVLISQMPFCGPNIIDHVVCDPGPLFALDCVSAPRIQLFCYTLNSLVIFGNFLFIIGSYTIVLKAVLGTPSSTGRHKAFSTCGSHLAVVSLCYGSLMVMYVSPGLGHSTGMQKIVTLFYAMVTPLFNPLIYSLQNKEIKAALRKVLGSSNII
Outline: as §1

[12] = test system: T12, O11H1; remark: listed apart in the source
T12 sequence (whole entry): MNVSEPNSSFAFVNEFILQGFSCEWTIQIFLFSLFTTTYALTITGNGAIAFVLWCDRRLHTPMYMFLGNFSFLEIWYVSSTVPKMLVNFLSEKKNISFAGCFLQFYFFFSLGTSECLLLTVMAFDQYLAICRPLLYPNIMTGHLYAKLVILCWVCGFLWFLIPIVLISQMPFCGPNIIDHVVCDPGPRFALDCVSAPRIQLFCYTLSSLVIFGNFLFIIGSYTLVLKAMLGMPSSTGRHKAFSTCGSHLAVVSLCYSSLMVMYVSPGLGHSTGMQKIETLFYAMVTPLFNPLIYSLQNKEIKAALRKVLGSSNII
Outline: as §1

[13] = test system: T13, O11H2
T13 sequence (whole entry): T11 sequence (whole entry) with F90S, T105K, H146L, C156Y, M181K, V192I, N218S, I235L, T243M, V289E
Outline: as §1

[14] = test system: T14, O11H4
T14 sequence (whole entry): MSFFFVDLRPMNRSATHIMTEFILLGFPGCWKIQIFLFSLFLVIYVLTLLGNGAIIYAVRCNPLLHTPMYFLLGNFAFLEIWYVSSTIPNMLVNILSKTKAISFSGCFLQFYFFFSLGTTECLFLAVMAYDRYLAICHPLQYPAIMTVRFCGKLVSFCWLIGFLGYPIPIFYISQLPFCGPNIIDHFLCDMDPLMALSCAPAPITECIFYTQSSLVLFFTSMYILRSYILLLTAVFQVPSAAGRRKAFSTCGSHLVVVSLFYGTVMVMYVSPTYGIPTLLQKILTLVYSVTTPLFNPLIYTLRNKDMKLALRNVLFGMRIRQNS
Outline: as §1

[15] = test system: T15, O11L1
T15 sequence (whole entry): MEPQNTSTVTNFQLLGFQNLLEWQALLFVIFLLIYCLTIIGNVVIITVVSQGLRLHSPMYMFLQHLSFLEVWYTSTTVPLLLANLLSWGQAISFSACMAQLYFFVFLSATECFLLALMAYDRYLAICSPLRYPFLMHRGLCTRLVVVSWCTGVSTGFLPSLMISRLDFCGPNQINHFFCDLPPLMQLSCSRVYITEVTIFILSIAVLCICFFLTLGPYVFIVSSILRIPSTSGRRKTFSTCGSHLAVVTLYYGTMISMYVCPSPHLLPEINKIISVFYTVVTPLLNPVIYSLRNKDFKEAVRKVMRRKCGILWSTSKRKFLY
Outline: as §1

[16] = test system: T16, O12D2
T16 sequence (whole entry): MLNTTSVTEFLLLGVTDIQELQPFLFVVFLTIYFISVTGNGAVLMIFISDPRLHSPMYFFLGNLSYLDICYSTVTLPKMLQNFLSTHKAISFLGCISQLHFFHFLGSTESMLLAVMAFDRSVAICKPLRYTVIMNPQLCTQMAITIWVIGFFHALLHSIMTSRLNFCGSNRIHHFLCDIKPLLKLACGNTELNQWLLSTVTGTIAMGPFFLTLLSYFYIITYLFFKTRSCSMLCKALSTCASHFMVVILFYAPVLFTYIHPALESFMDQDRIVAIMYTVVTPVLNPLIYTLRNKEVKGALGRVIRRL
Outline: as §1

[17] = test system: T17, O13C3
T17 sequence (whole entry): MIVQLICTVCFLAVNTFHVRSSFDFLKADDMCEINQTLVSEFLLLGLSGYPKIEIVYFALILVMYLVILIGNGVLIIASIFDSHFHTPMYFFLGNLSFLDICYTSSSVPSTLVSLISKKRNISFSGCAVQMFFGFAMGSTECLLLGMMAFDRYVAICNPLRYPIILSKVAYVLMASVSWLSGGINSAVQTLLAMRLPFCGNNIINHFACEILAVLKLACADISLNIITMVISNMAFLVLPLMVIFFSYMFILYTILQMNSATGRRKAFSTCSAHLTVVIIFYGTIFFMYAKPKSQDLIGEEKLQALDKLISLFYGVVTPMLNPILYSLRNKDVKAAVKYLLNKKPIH
Outline: as §1

Row | SMILES | odorant receptor agonist call [1] | odorant receptor agonist call [2] | odorant receptor agonist call [3] | odorant receptor agonist call [4] | odorant receptor agonist call [5] | odorant receptor agonist call [6] | odorant receptor agonist call [7] | odorant receptor agonist call [8] | odorant receptor agonist call [9] | odorant receptor agonist call [10] | odorant receptor agonist call [11] | odorant receptor agonist call [12] | odorant receptor agonist call [13] | odorant receptor agonist call [14] | odorant receptor agonist call [15] | odorant receptor agonist call [16] | odorant receptor agonist call [17]
1 | COc1cc(C)ccc1O | inactive | inactive | inactive | inactive | inactive | inactive | inactive | inactive | inactive | inactive | inactive | inactive | inactive | inactive | inactive | inactive | inactive
2 | CCCCCC(C)=O |  | inactive | active | inactive | inactive | inactive | inactive | inactive | inactive |  | inactive |  | inactive | inactive | inactive | inactive | inactive
3 | CC(C)(C)c1ccc(CCC=O)cc1 | inactive | inactive | inactive | inactive | inactive | inactive | inactive | inactive | inactive | inactive | inactive | active | inactive | inactive | inactive | inactive | inactive
4 | C=C(C)C1CCC2=CC(=O)CC(C)C2(C)C1 (configuration not stated) | active |  |  |  |  |  |  |  |  | active |  | active |  |  |  |  | 
5 | CC(C)CCC(=O)O | inactive | inactive | inactive | inactive | inactive | inactive | inactive | inactive | inactive | inactive | inactive | inactive | inactive | inactive | inactive | inactive | inactive
6 | O=C1CCCCCCCCCCCC(=O)OCCO1 | inactive | inactive | inactive | inactive | inactive | inactive | inactive | inactive | inactive | inactive | inactive | inactive | inactive | inactive | inactive | inactive | inactive
7 | CCCCCCCOC(C)=O | inactive | inactive | inactive | inactive | inactive | inactive | inactive | inactive | inactive | inactive | inactive | inactive | inactive | inactive | inactive | inactive | inactive
